In PubChem BioAssay AID1671190 (National Center for Advancing Translational Sciences (NCATS), 2021):
Screen size: about 580,000 compounds; about 6,100 (1.1%) were called active. The shares of active, inactive and inconclusive entries below differ from those in the screen. Calls follow the shape of the dose curve; as a rule, active = well fitted inhibition curve with a large enough effect; inconclusive = small, poorly fitted or top-dose-only effect, or another doubt; inactive = no such curve, though single readings can be large or run the other way. Potencies beside an inconclusive call are fits to weak or partial responses and may not hold up.
% is scaled to controls: 0 for no effect and ±100 for the full control effect; potency is read from the fitted curve at half-maximal effect.

Amino acid sequences for entries named in this document (tags omitted).
UniProt P18054, whole entry, looked up: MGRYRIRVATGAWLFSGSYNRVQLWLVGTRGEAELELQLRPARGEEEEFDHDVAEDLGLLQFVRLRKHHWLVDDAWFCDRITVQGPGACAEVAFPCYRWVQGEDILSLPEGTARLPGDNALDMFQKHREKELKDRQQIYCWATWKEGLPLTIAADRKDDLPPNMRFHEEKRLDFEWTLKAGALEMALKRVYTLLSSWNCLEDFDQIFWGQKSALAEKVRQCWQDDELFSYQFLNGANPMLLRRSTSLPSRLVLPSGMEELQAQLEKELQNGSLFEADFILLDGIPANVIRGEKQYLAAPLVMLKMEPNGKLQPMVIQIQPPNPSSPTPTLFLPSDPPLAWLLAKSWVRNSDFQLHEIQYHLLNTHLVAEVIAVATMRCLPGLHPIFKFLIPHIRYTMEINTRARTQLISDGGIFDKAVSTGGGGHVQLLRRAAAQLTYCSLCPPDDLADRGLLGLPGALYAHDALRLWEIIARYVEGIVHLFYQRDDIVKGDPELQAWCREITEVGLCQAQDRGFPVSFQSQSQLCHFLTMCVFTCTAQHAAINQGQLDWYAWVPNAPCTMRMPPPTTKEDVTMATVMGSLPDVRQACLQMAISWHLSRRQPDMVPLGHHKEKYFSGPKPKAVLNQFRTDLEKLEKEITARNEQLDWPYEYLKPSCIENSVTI

What follows are compounds tested against Polyunsaturated fatty acid lipoxygenase ALOX12 (Homo sapiens) (UniProt P18054) (assay: Primary qHTS assay for inhibitors of human arachidonate 12S-lipoxygenase (ALOX12): Round 2). Conditions: purified 12hLO, xylenol orange hydroperoxide absorbance; activity change, negative = inhibition: at 108 µM (top of the series) unless noted.
Excerpt: Assay Provider: Theodore R. Holman Ph.D. University of California, Santa Cruz, California Human lipoxygenase 12hLO is a member of the closely related lipoxygenase family of enzymes which catalyze the site-specific oxidation of arachidonic acid to various hormone precursor molecules and as such is a candidate for drug development in a variety of disease areas, such as cancer and inflammation. Inhibition of 12hLO activity was screened by utilizing arachidonic acid as a substrate. The extent of hydroperoxide product formation was measured by a secondary chromogenic reaction in which xylenol orange (XO, Sigma-Aldrich, cat. number 39,818-7) reacts with the ferric ions produced from the reaction between the hydroperoxide and ferrous ions. The Fe (III)-XO complex is characterized with red-shifted absorbance at 560 nm. A purified preparation of human 12hLO was supplied by Dr. Holman laboratory, University of California, Santa Cruz.
PROTOCOL TABLE SEQUENCE No. (e.g., 1, 2, 3, etc.); […] (e.g., Cells, Incubation, Reagent, etc.); VALUE; DESCRIPTION 1; Enzyme; 3 uL; 150 nM 12hLO enzyme solution dispensed in 1536-well Greiner black, clear bottom plates. 2; Compound; 23 nL; compounds and controls were added. 3; Incubate; 15 min; room temperature. 4; Substrate; 1 uL; 40 uM arachidonic acid (final concentration). 5; Incubate; 30 min; room temperature. 6; Reagent; 4 uL; Fe-XO solution was added to each well. 7; Incubation; 30 min; room temperature 8; Detector; absorbance; Read 1 at 405 nm absorbance using ViewLux (Perkin-Elmer) CCD imager. 9; Detector; absorbance; Read 2 at 573 nm absorbance using ViewLux (Perkin-Elmer) CCD imager. NOTES (numbers refer to sequence above) 1; 150 nM 12hLO (final concentration) in buffer solution (25 mM Hepes, 0.01% Triton X-100, pH 7.0) was dispensed in columns 1, 2, 5-48. Column 1 is neutral (100% activity). Buffer only was dispensed in columns 3 and 4 as no enzyme negative controls. The plates were covered with metal lids with gas-exchange holes. 2; Compounds were pin transferred via a Kalypsys Pin Tool (Wako USA) in column 5-48. Control compound was transferred in column 2, titration of nordihydroguaiaretic acid (NDGA, Sigma-Aldrich, N5023) with top concentration of 20 mM in DMSO then 1:3 dilution in duplicate. Dilution factor of 23 nL into 4 uL final assay volume. 3; Covered assay plates were incubated for 15 min at room temperature. 4; Substrate was added to start the reaction; 40 uM arachidonic acid (Sigma-Aldrich, St. Louis, MO) was dispensed throughout the plate. 6; Chromogenic detection reagent solution (divalent iron/xylenol orange, Fe-XO) was added to each well: 200 uM xylenol orange, 300 uM ferrous ammonium sulfate prepared freshly in 50 mM sulfuric acid. 8, 9; Two absorbance readouts were obtained at 405 nm and at 573 nm using a ViewLux high-throughput CCD plate imager (Perkin-Elmer). The 573 to 405 (Read 2 / Read 1) absorbance ratio was used to compute reaction progress.
`FC(F)Oc1ccc(NC(=S)NNc2ccnc3cc(Cl)ccc23)cc1` was tested, and the Potency was inconclusive: 44.7 µM [inhibitor, partial curve, poor fit].
With `Oc1ccc(-c2nc(-c3ccc(Cl)s3)cs2)cc1` the Potency was inconclusive: 31.6 µM [inhibitor, partial curve, poor fit].
With `O=C(Nc1ccc2ccccc2c1)c1cnccn1` the Potency was “inactive”.
For `Cc1ccc(NC(=S)N/N=C/c2c(C)[nH]c3ccccc23)cc1`, the Potency was active: 31.6 µM.
In the case of `Cn1nccc1-c1coc2c(C(=O)NCc3ccccc3)cccc12`, the Potency is reported as inconclusive: 28.2 µM [inhibitor, single point].
With `COc1ccc(-c2cc(C(=O)NCC3CCCO3)c3ccccc3n2)c(OC)c1` (stereo not given) the Potency was inconclusive: 50.1 µM [inhibitor, partial curve, poor fit].
`Cc1ccc(C)c(NC(=O)Cn2c(=O)n(-c3ccc(CC(=O)NC(C)C)cc3)c(=O)c3ccccc32)c1` was tested, and the Potency was “inactive”.
With `COC(=O)c1cc(-c2ccc(C)cc2)nc2onc(-c3ccco3)c12` the Potency was inconclusive: 20 µM [inhibitor, partial curve, poor fit].
In the case of `COCCCNC(=O)CCCn1c(=O)c2ccccc2n(CC(=O)Nc2ccc(C)cc2Cl)c1=O`, the Potency is reported as “inactive”.
With `Cc1[nH]c(C)c(S(=O)(=O)NCCc2ccc(S(N)(=O)=O)cc2)c1C(=O)N1CCCC1` the Potency was “inactive”.
For `O=C(O)COc1ccc(/C=C2/NC(=O)NC2=O)cc1Br`, the Potency was inconclusive: 31.6 µM [inhibitor, single point].
`Cc1ccc(S(=O)(=O)N2C[C@@H](C)[C@]3(C2)[C@H](O)[C@H](OC(=O)Nc2cccs2)C[C@H]2C(=O)N(c4ccccc4)C(=O)[C@H]23)cc1` was tested, and the Potency was inconclusive: 7.08 µM [inhibitor, full curve].
In the case of `COc1ccc(-c2nnn(CC(=O)Nc3sc4c(c3C#N)CCCC4)n2)cc1`, the Potency is reported as inconclusive: 141 µM [inhibitor, single point].
In the case of `Cc1ccccc1S(=O)(=O)NC1OC(=O)C(Oc2ccccc2)=C1Br` (stereo not given), the Potency is reported as inconclusive: 44.7 µM [inhibitor, partial curve].
In the case of `Cc1cc(C)c(NC(=O)CN2CCN(c3ccccc3)CC2)c(Cl)c1`, the Potency is reported as “inactive”.
`CC1=Nc2ccccc2/C1=C/c1nc(-c2ccc(C)s2)oc1O` was tested, and the Potency was inconclusive: 28.2 µM [inhibitor, single point].
`CCOc1ccc(-c2ccnc(NCC3CCNCC3)n2)cc1C(=O)O` was tested, and the Potency was inconclusive: 14.1 µM [inhibitor, full curve].
With `O=C(COC(=O)c1ccccc1OC(F)F)Nc1ccc2[nH]c(=O)[nH]c2c1` the Potency was inconclusive: 11.2 µM [inhibitor, full curve, poor fit].
For `CN(Cc1ccccc1)c1oc(-c2cccc(Cl)c2)nc1C#N`, the Potency was inconclusive: 35.5 µM [inhibitor, partial curve, poor fit].
For `CCCCOCCCNC(=O)c1ccccc1SCC`, the Potency was “inactive”.
`CN(C)C(=O)c1cnc(Sc2ncc(C(F)(F)F)cc2Cl)n1C` was tested, and the Potency was “inactive”.
`O=C(CCNC(=O)c1ccc(Cl)cc1)Nc1ccc(Cl)cc1F` was tested, and the Potency was “inactive”.
`O=S(=O)(c1c(Cl)cc(Br)cc1Cl)N1CCN(C(=S)NC2CC2)CC1` was tested, and the Potency was “inactive”.
With `CCc1ccccc1NC(=O)CNC(=O)CCc1nc2sc3c(c2c(=O)[nH]1)CCCC3` the Potency was inconclusive: 7.94 µM [inhibitor, full curve, poor fit].
For `COCCN1CCC(N2CCN(C(=O)c3ccc(F)c(F)c3)CC2)C1=O` (stereo not given), the Potency was “inactive”.
In the case of `COc1ccc(OC)c(NC(=O)c2cc3oc4ccccc4c3cc2O)c1`, the Potency is reported as “inactive”.
`Nc1nnc(CSCc2ccc(Cl)cc2Cl)s1` was tested, and the Potency was “inactive”.
`CC(C)c1ccc(/C=C/C(=O)Nc2ccc(F)cc2F)cc1` was tested, and the Potency was inconclusive: 3.55 µM [inhibitor, full curve, poor fit].
For `CCOC(=O)c1c(NC(=S)N2CCCCC2)sc2c1CCN(C(=O)OCC)C2`, the Potency was inconclusive: 35.5 µM [inhibitor, partial curve, poor fit].
For `CCC(c1nnnn1Cc1ccco1)N1CCN(c2cc(Cl)ccc2C)CC1` (stereo not given), the Potency was inconclusive: 35.5 µM [inhibitor, partial curve, poor fit].
In the case of `O=C(CCN1CCN(CCO)CC1)Nc1ccc(C2CCCC2)cc1`, the Potency is reported as active: 44.7 µM.
In the case of `COc1cccc(COC(=O)c2ccc3c(c2)NC(=O)C(C)S3)c1OC` (stereo not given), the Potency is reported as inconclusive: 5.62 µM [inhibitor, full curve, poor fit].
For `Cn1c(=O)c2nc(SCC(=O)O)n(CCc3ccccc3)c2n(C)c1=O`, the Potency was inconclusive: 17.8 µM [inhibitor, partial curve, poor fit].
In the case of `CCN(CC)c1ccc(NC(=S)NC(=O)c2cccs2)cc1`, the Potency is reported as active: 17.8 µM.
For `CC1(C)CC(=O)c2cc(NC(=O)c3ccccc3)c(=O)oc2C1`, the Potency was “inactive”.
In the case of `COc1ccccc1N=c1oc2cc(O)ccc2cc1C(=O)NCC1CCCO1` (stereo not given), the Potency is reported as “inactive”.
For `COc1ccc(NC(=O)c2cnn3c2NC(C(=O)O)=CC3/C=C/c2ccccc2)cc1Cl` (stereo not given), the Potency was inconclusive: 44.7 µM [inhibitor, partial curve, poor fit].
With `Cc1ccc(S(=O)(=O)N2CCC(NC(=O)C3CCCCC3)CC2)cc1` the Potency was inconclusive: 0.562 µM [inhibitor, full curve, poor fit].
With `Cc1ccc(S(N)(=O)=O)cc1` the Potency was “inactive”.
In the case of `Cc1noc(C)c1COc1ccccc1C(=O)N(C)Cc1ccc(C(C)(C)C)cc1`, the Potency is reported as inconclusive: 79.4 µM [inhibitor, single point].
`COc1cc(NCCCn2cnc(C(=O)Nc3ccc(C)c(C)c3)n2)cc(OC)c1OC` was tested, and the Potency was inconclusive: 112 µM [inhibitor, single point].
For `COc1ccccc1CNC(=O)CN(C)S(=O)(=O)c1ccc(F)cc1`, the Potency was “inactive”.
For `COc1ccc(CN2CCC[C@H]2c2nc(-c3ccc(-n4ccnc4)nc3)no2)c(OC)c1OC`, the Potency was “inactive”.
For `CCOc1ccccc1CN1CCCCC12Cc1ccccc1CNC2=O` (stereo not given), the activity change, negative = inhibition was inactive: 2.61% [at 6.33 µM].
For `O=C(CCC[C@H]1NC[C@@H]2C[C@H]1CN(Cc1ccccc1)C2)NCc1cc(F)cc(F)c1`, the Potency was inconclusive: 3.55 µM [inhibitor, full curve, poor fit].
In the case of `C=CCn1c(SCC(=O)Nc2ccc(C(=O)OCC)cc2)nnc1-c1cccs1`, the Potency is reported as “inactive”.
For `CC(=O)c1cccc(N/C=C\C(=O)c2ccc(C)cc2)c1`, the Potency was “inactive”.
For `Cc1ccccc1-c1nsc(SCC(=O)NCc2ccc3c(c2)OCO3)n1`, the Potency was “inactive”.
In the case of `CS(=O)(=O)Nc1cc(NC(=O)c2ccccc2SCC2CCCO2)ccc1F` (stereo not given), the Potency is reported as “inactive”.
With `Cc1c(-c2ccccc2)oc2c(C(=O)NCc3ccccc3CN(C)C)cccc2c1=O` the Potency was inconclusive: 3.98 µM [inhibitor, full curve, poor fit].
In the case of `O=C(/C=C/c1ccc(-c2ccc(F)cc2)o1)N(C1CCCCC1)C1CCCCC1`, the Potency is reported as inconclusive: 44.7 µM [inhibitor, partial curve, poor fit].
For `COc1ccccc1CCn1cnc(-c2ccc(F)cc2F)c1CC(C)C`, the Potency was inconclusive: 44.7 µM [inhibitor, partial curve, poor fit].
In the case of `Cc1ccc(NS(=O)(=O)c2ccc(CCC(=O)O)cc2)cc1S(=O)(=O)N1CCCCC1`, the Potency is reported as “inactive”.
`COc1ccc(-n2c(COc3cccc4cccnc34)nnc2SCC(=O)O)cc1` was tested, and the Potency was “inactive”.
In the case of `CCc1ccc(Nc2nc(C)cc(C)n2)cc1`, the Potency is reported as inconclusive: 8.91 µM [inhibitor, full curve, poor fit].
`CC(C)(C)c1ccc(-c2cc(C[C@H]3CNCC[C@H]3CC(=O)N3CCC(n4c(=O)[nH]c5ccccc54)CC3)no2)cc1` was tested, and the Potency was active: 31.6 µM.
In the case of `O=C(NC1CCCCCC1)c1nc2ncccn2n1`, the Potency is reported as “inactive”.
`COc1ccc2c(C)c(CCC(=O)Nc3cccc(C)c3C)c(=O)oc2c1` was tested, and the Potency was inconclusive: 79.4 µM [inhibitor, single point].
In the case of `Cc1ccc(C)c(C(=O)COC(=O)CCc2c[nH]c3ccccc23)c1`, the Potency is reported as inconclusive: 50.1 µM [inhibitor, single point].
With `c1ccc2c(c1)oc1c(-c3cccc4nccn34)cccc12` the Potency was inconclusive: 35.5 µM [inhibitor, partial curve].
With `CCn1c(C)c(C)c2cc(C(=O)N3CCN(c4ccccc4)CC3)ccc21` the Potency was inconclusive: 39.8 µM [inhibitor, partial curve, poor fit].
In the case of `COc1ccc(-c2nc3cnc(Nc4ccccc4)nc3n(C[C@H]3CCCO3)c2=O)cc1`, the Potency is reported as inconclusive: 28.2 µM [inhibitor, partial curve, poor fit].
`CNC(=O)c1cccc(NC(=O)c2cnc3ccccc3n2)c1` was tested, and the Potency was “inactive”.
For `Nc1ccccc1SC(CC(=O)c1ccccc1)c1cccc([N+](=O)[O-])c1` (stereo not given), the Potency was inconclusive: 10 µM [inhibitor, full curve, poor fit].
For `CC(C)(C)C(=O)NCCC(=O)Nc1ccc2c(c1)CCC2`, the Potency was “inactive”.
In the case of `Cc1cc(CSc2ccc(Cl)cc2)ccc1N`, the Potency is reported as inconclusive: 100 µM [inhibitor, partial curve, poor fit].
`O=C(O)COc1ccc(-c2nccc3c2C(=O)N(Cc2cccc(C(F)(F)F)c2)CC(CNC(=O)c2cccc(Cl)c2)O3)cc1` (stereo not given) was tested, and the Potency was inconclusive: 22.4 µM [inhibitor, full curve].
For `Cc1cc(C)n2nc(C(=O)N/N=C/c3ccc(Cl)cc3)nc2n1`, the Potency was “inactive”.
In the case of `CN(C)CCN(Cc1ccccc1)S(=O)(=O)c1csc(C(N)=O)c1`, the Potency is reported as inconclusive: 126 µM [inhibitor, partial curve, poor fit].
In the case of `Cc1ccc(NC(=O)c2oc3ccccc3c2COC(C)C)cc1S(=O)(=O)N1CCOCC1`, the Potency is reported as inconclusive: 50.1 µM [inhibitor, partial curve, poor fit].
